Test results taken from PubChem BioAssay AID504467 (National Center for Advancing Translational Sciences (NCATS), 2011).
The campaign covered roughly 330,000 compounds. About 7,700 (2.3%) were called active. Inconclusive results, whose numbers are uncertain, are shown with a selection of clear calls. Calls come from the whole dose curve; as a rule, active = well fitted inhibition curve with a large enough effect; inconclusive = small, poorly fitted or top-dose-only effect, or effect the other way; inactive = flat fitted curve, though single readings scatter. Potencies of inconclusive entries are doubtful fits and often do not repeat.

Assay: qHTS screen for small molecules that inhibit ELG1-dependent DNA repair in human embryonic kidney (HEK293T) cells expressing luciferase-tagged ELG1; note: nearly all actives have a fitted effect of over 55% in size
Settings: HEK293T ELG1-luciferase reporter, luminescence, 16 h, DNA damage induced by 5-fluorouridine; series mostly up to 46.1 µM
Outline: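 Cells (2,000 per well) received 5-fluorouridine plus test compound or DMSO and were incubated 16 hr at 37 °C, 5% CO2. Luciferase activity was read by luminescence 30 min after ONE-Glo addition; signal suppression marked inhibition of damage-induced ELG1 function.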
Potency is the fitted concentration of half-maximal effect.

Row | Structure (SMILES) | Potency
1 | Cc1c(/C=N\NC(=O)C2COc3ccc(C(C)(C)C)cc3O2)c2ccccc2n1C (stereo not drawn) | inconclusive: 0.146 µM [inhibitor, partial curve, poor fit]
2 | O=C(Oc1ccc(-c2nccc(-c3ccccn3)n2)cc1)c1cccc(C(F)(F)F)c1 | inconclusive: 18.4 µM [activator, partial curve]
3 | COc1cc(C2Nc3ccccc3C(=O)N2c2ccc(Cl)cc2)c(Cl)cc1OCC(=O)O (stereo not drawn) | inconclusive: 18.4 µM [activator, partial curve]
4 | CC1Cc2nc(SCC(=O)NCC3CCCO3)n(C)c(=O)c2S1 (stereo not drawn) | inactive
5 | CC(=O)Nc1ccc(NC(=O)CN(C)CC(=O)Nc2ccccc2Br)cc1 | inactive
6 | CCCCN(C(=O)c1cccc2c(=O)c(C)c(-c3ccccc3)oc12)c1ccccc1 | inconclusive: 18.4 µM [inhibitor, single point]
7 | Cc1ccc(N/N=C(\C#N)C(=N)N2CCOCC2)cc1 | inconclusive: 13 µM [activator, partial curve]
8 | Cc1ccc(NC(=O)CSc2ccccc2NC(=O)c2ccccc2Cl)cc1Cl | active: 23.1 µM
9 | CCN1/C(=C/c2ccc3cc(C)ccc3[n+]2CC)Sc2cc(C)c(C)cc21 | inconclusive: 0.651 µM [inhibitor, partial curve, poor fit]
10 | CCCn1c(SCC(=O)NNC(=O)c2ccccc2)nnc1-c1cccnc1 | inconclusive: 14.6 µM [activator, single point]
11 | Cc1cccc(NC(=O)c2ccc3c(Cl)c4c(nc3c2)CCCC4)n1 | inconclusive: 1.03 µM [activator, partial curve]
12 | O=C(c1ccc(F)cc1)C1CCN(C(=O)Nc2ccc(F)cc2)CC1 | inconclusive: 1.03 µM [inhibitor, partial curve]
13 | O=C(NCCc1ccc(Cl)cc1)c1cccnc1 | inconclusive: 18.4 µM [activator, single point]
14 | CCC(C(=O)NCCCN1CCCC1=O)n1c2ccccc2c2nc(=O)cc(C)n21 (stereo not drawn) | inconclusive: 29.1 µM [activator, partial curve, poor fit]
15 | COc1ccc2[nH]c3c(=O)n(CCCCC(=O)NCCC(C)C)c(=S)[nH]c3c2c1 | inactive
16 | CCC(C)c1ccccc1NC(=O)Cc1coc2cc3c(cc12)CCC3 (stereo not drawn) | inactive
17 | COc1ccc(NC(=O)c2cc(-c3ccccc3OC)on2)cc1 | inconclusive: 25.9 µM [activator, single point]
18 | O=[N+]([O-])c1ccc2c3n([n+]([O-])c2c1)CCN=C3c1ccc(Cl)cc1 | inactive
19 | N#CCc1ccc(Oc2ncccn2)cc1 | inconclusive: 25.9 µM [activator, single point]
20 | C/C=C(/C)C(=O)O[C@H]1[C@@H](O)c2c(ccc3ccc(=O)oc23)OC1(C)C | inactive
21 | O=C(Nc1ccc(N2CCCCC2)cc1)c1ccc(F)cc1F | inconclusive: 2.59 µM [activator, partial curve]
22 | Cc1ccc(C(=O)/C=C2\NCC(C)NC2=O)cc1 (stereo not drawn) | inconclusive: 1 µM [activator, full curve, poor fit]
23 | COc1ccc(OC)c(S(=O)(=O)N2CCCC(N3CCN(c4ccccc4)CC3)C2)c1 (stereo not drawn) | inconclusive: 10.3 µM [inhibitor, partial curve]

Row | Structure (SMILES) | Potency
24 | Cc1nn(-c2ccccc2[N+](=O)[O-])c(=O)c2ccccc12 | inconclusive: 32.6 µM [activator, partial curve, poor fit]
25 | COC(=O)C(C)Oc1ccc(-c2nccc(-c3cccs3)n2)cc1 (stereo not drawn) | inconclusive: 23.1 µM [activator, single point]
26 | COc1ccc(CNC(=O)c2cnn3c(C(F)F)cc(C)nc23)cc1 | inconclusive: 25.9 µM [inhibitor, single point]
27 | Cc1ccn2cc(-c3cc4ccccc4oc3=O)nc2c1 | inconclusive: 0.366 µM [activator, full curve]
28 | O=C1S/C(=C\c2cccs2)C(=O)N1c1ccc(O)cc1 | inconclusive: 10.3 µM [activator, partial curve]
29 | O=C(c1ccc(-n2cccn2)cc1)N1CCc2ccccc2C1 | inconclusive: 29.1 µM [activator, single point]
30 | O=C1OC(/C(=C\Nc2cc(Cl)ccc2O)[N+](=O)[O-])c2ccccc21 (stereo not drawn) | inconclusive: 16.4 µM [inhibitor, single point]
31 | N#CC1(NC(=O)COC(=O)c2nc(Cl)c(Cl)c(N)c2Cl)CCCCC1 | inconclusive: 2.31 µM [activator, full curve, poor fit]
32 | CCOc1ccc(CCNC(=O)CCc2nnc3ccc(N4CCCCC4)nn23)cc1OCC | inconclusive: 32.6 µM [inhibitor, partial curve, poor fit]
33 | COc1cccc(CNc2cccc3cccnc23)c1O | inconclusive: 14.6 µM [activator, partial curve, poor fit]
34 | C#CCOCCOCCOCCNc1nc(N2CCN(C(=O)[C@H](CCCCN)n3cc([C@@H](N)CO)nn3)CC2)nc(N2CCN(C(=O)[C@H](CCCCN)n3cc([C@@H](N)CC(C)C)nn3)CC2)n1 | inconclusive: 16.4 µM [activator, single point]
35 | C=CCN(CC=C)S(=O)(=O)c1ccc(NC(=S)NC(=O)c2ccc(-c3ccccc3)cc2)cc1 | inconclusive: 2.59 µM [inhibitor, full curve]
36 | Cc1cc(N2CCN(c3ccccc3)CC2)nc(N2CCOCC2)n1 | inconclusive: 14.6 µM [inhibitor, partial curve]
37 | O=c1nccc(N/N=C/c2ccccc2)[nH]1 | inconclusive: 23.1 µM [activator, partial curve]
38 | Cc1cc(-n2c(C)cc(C(=O)COc3ccc(Cl)cc3C(N)=O)c2C)no1 | inconclusive: 1.83 µM [inhibitor, partial curve, poor fit]
39 | COc1cccc(-c2nc(C=O)cs2)c1 | inconclusive: 32.6 µM [activator, partial curve, poor fit]
40 | Cc1cc(Sc2nnc(N)s2)c2ccccc2n1 | inactive
41 | CCc1ccc(C(=O)NNC(=O)c2ccc(OCC(=O)N3CCOCC3)c(OC)c2)cc1 | inconclusive: 1.26 µM [inhibitor, single point]
42 | c1ccc(CN2CCN(c3ncnc4c3[nH]c3ccccc34)CC2)cc1 | active: 14.6 µM
43 | COC(=O)CNC(=O)C1CCN(C(=O)OCc2ccccc2)CC1 | inactive
44 | COc1cccc(OCCOCC(O)CN2CCN(Cc3ccc(Cl)cc3)CC2)c1 (stereo not drawn) | inactive
45 | COc1cc(S(=O)(=O)N2CCCC3(CCCCC3)C2)ccc1-n1cnnn1 | inconclusive: 23.1 µM [inhibitor, partial curve, poor fit]
46 | CCn1nccc1C(=O)Nc1ccc(Cl)cc1Cl | inconclusive: 11.6 µM [activator, partial curve]

Row | Structure (SMILES) | Potency
47 | CN(C)c1ccc(Nc2nc(N)c([N+](=O)[O-])c(N3CCOCC3)n2)cc1 | active: 16.4 µM
48 | O=C1N/C(=N/O)S/C1=C/c1cccnc1 | inactive
49 | N#Cc1ccc(NC(=O)C2=COCCO2)cc1 | inconclusive: 13 µM [activator, partial curve]
50 | O=C(Nc1ccc(N2CCOCC2)cc1)c1cnccn1 | inconclusive: 0.73 µM [activator, full curve]
51 | Cc1cc(=O)oc2cc(NC(=O)c3ccnn3C)ccc12 | inconclusive: 9.2 µM [activator, partial curve]
52 | CN(C1CCCCC1)S(=O)(=O)c1ccc(S(=O)(=O)N(CC(=O)Nc2ccccc2)C2CC2)cc1 | inactive
53 | Cc1ccc(CS(=O)(=O)c2nc3c(c(N(C)C)n2)CCCC3)cc1 | inactive
54 | Cc1cc(Cl)c(S(=O)(=O)N2CCN(c3ccccc3)CC2)cc1OCC(N)=O | inconclusive: 29.1 µM [inhibitor, single point]
55 | CN(Cc1ccccc1)C1CCCN(C(=O)c2ccc(Cl)s2)C1 (stereo not drawn) | inactive
56 | COc1ccc(-c2cc(C(F)F)n3ncc(C(=O)Nc4cc(C)on4)c3n2)cc1 | inconclusive: 23.1 µM [inhibitor, partial curve]
57 | O=C(/C=C/Nc1ccc(F)cc1Br)c1ccccc1 | inconclusive: 0.259 µM [activator, partial curve]
58 | CCc1cc2c(=O)c(-c3cscn3)coc2c(CN(C)C)c1O | inactive
59 | O=C(Nc1ccc(Cl)cc1)/C(=C1\CCCN1)[N+](=O)[O-] | inconclusive: 2.91 µM [activator, full curve]
60 | CN(C)c1ccc(N=Nc2ccccc2C(=O)OCC(=O)NCC2CCCCC2)cc1 | inconclusive: 32.6 µM [inhibitor, single point]
61 | COc1cccc(/C=N/NC(=O)c2cc3c(OC)ccc(OC)c3[nH]2)c1O | active: 3.66 µM
62 | CC(=O)c1c(C)[nH]c(C(=O)OCC(=O)NCCc2ccc(Cl)cc2)c1C | inconclusive: 23.1 µM [inhibitor, single point]
63 | CCc1ccc(NC(=O)CCS(=O)(=O)c2ccc(Cl)cc2)cc1 | inactive
64 | CC(C)NS(=O)(=O)c1ccc(NC(=S)NC(=O)c2ccc(-c3ccccc3)cc2)cc1 | inconclusive: 1.84 µM [inhibitor, partial curve, poor fit]
65 | CCn1c(COc2ccc(=O)n(-c3ccccc3)n2)nnc1SCc1cccc(OC)c1 | inactive
66 | Cc1c(NC(=O)c2ccc3c(c2)OCO3)cccc1-c1nc2ccccc2o1 | inconclusive: 29.1 µM [inhibitor, single point]
67 | CCOc1ccccc1OCCNC1CCCC1 | inactive
68 | Cc1ccc(CSc2nsc(C)c2C#N)cc1 | inconclusive: 14.6 µM [activator, partial curve, poor fit]

Arranged by SMILES length (rising): 3 of the compounds above.
Row | Structure (SMILES) | Potency
48 | O=C1N/C(=N/O)S/C1=C/c1cccnc1 | inactive
50 | O=C(Nc1ccc(N2CCOCC2)cc1)c1cnccn1 | inconclusive: 0.73 µM [activator, full curve]
61 | COc1cccc(/C=N/NC(=O)c2cc3c(OC)ccc(OC)c3[nH]2)c1O | active: 3.66 µM
